# Results reported in PubChem BioAssay AID588497 (NMMLSC, 2011).
# Screen size: about 360,000 compounds; about 780 (0.22%) were called active. The shares of active, inactive and inconclusive entries below differ from those in the screen. Rule as the data show it: active = inhibition above about 35% (passing the limit was not always enough); inconclusive = no clear call, values can overlap the other calls.
# Tested on: Botulinum neurotoxin type F light chain protease (Clostridium botulinum)
# Experiment: BoNT/F light chain protease inhibitors, primary screen, biochemical, flow cytometry, MLPCN library (AID 588497); also: plate controls were buffer without enzyme for full effect and enzyme alone for no effect
# Conditions: Multiplex microsphere protease cleavage assay, at 10 µM, stronger effect = higher value
row,Compound,inhibition
1,O=C(O)C(Cc1c[nH]c2ccccc12)NS(=O)(=O)c1ccc(Cl)cc1 (stereo not drawn),inactive: 1.6%
2,Cc1cccc(Nc2nc(NC(C)C)nc(Oc3ccc(=O)n(C)n3)n2)c1,inactive: -4.3%
3,CCn1c(SCC(=O)NC)nnc1C(C)C,inconclusive: -0.8%
4,CCOc1ccc2nc(NC(=O)c3ccoc3C)sc2c1,inactive: -8.5%
5,c1cc(-c2nsc(-c3ccncc3)n2)ccn1,inconclusive: -38.5%
6,O=C(NCc1ccc(Cl)cc1)C1CCCN1C(=O)Nc1ccccc1 (stereo not drawn),inconclusive: -5.1%
7,COc1ccc(C(=O)NC2CCN(S(=O)(=O)c3ccccc3F)CC2)cc1,inconclusive: -11.7%
8,O=C(NC1CC2CCCC(C1)N2CC(=O)N1CCCc2ccccc21)C1CCCCC1 (stereo not drawn),inactive: 8.1%
9,CC(C)Cc1ccc(C2=CSC3=NCCN23)cc1,inconclusive: -0.8%
10,CC(C)(C)c1ccc(OCC(=O)N(Cc2cccs2)C2CCS(=O)(=O)C2)cc1 (stereo not drawn),inactive: -2.3%
11,O=C1/C(=C/c2ccncc2)SC(=S)N1C1CCCCC1,inactive: -0.5%
12,CCc1ccc(C(=O)C(C)OC(=O)Cn2[nH]c(=O)c3ccccc3c2=O)cc1 (stereo not drawn),inconclusive: -7.8%
13,C#CCn1c2ccccc2c2nc3ccccc3nc21,inconclusive: -23.5%
14,CC(=O)c1ccc(N2C(=O)[C@@H]3[C@H](C2=O)[C@H]2c4ccccc4C=NN2[C@@H]3C(C)=O)cc1,inconclusive: -2.1%
15,CCc1c(C)c2ccc(OCC(=O)OC)cc2oc1=O,inactive: -9.9%
16,COc1ccc(C(=O)N2CCN(S(=O)(=O)c3cc(Cl)ccc3OC)CC2)cc1,inconclusive: -22.6%
17,Cc1cc(C)n2nc(SC(C)C(=O)N3CC(C)OC(C)C3)nc2n1 (stereo not drawn),inactive: -1%
18,CC1CCOC2(O1)C(=O)N(CN1CCN(c3ccccc3F)CC1)c1ccccc12 (stereo not drawn),inactive: -1.6%
19,COc1cc(NC(=O)c2ccc(Br)cc2)c(OC)cc1NC(=O)c1ccccc1,inconclusive: -10%
20,COc1ccccc1NC(c1cccnc1)c1ccc2cccnc2c1O (stereo not drawn),inactive: 0.9%
21,Cc1nn(-c2ccccc2)nc1C(N)=O,inconclusive: 77%
22,CN1CCN(C(=O)c2cc(Cl)cc(Cl)c2)CC1,inconclusive: 6.5%
23,Nc1cc(S(=O)(=O)N2CCOCC2)ccc1N1CCCCC1,inactive: -5.1%
24,CC(C)n1c(C(F)(F)F)nc2cc(C(=O)N3CCOCC3)ccc21,inconclusive: 4.1%

row,Compound,inhibition
1,O=c1oc2ccccc2cc1-c1csc(Cc2nc(-c3ccc(Cl)cc3)cs2)n1,inactive: -2.1%
2,O=C(CCCn1c(=S)[nH]c2cc3c(cc2c1=O)OCO3)NCc1ccccc1Cl,inactive: -5.4%
3,COc1ccc(-c2c(NC(=O)c3ccco3)n(-c3ccc(C)cc3)nc(C)c2=O)cc1,inconclusive: -23.8%
4,CCOC(=O)c1c(O)cc(C)cc1Nc1ccccc1,inconclusive: -10.4%
5,CCOC(=O)C1=NN(c2ccc(OC)cc2)C2C(=O)N(c3ccccc3OC)C(=O)C12 (stereo not drawn),inconclusive: -1.6%
6,Cc1cc(C)c2[nH]c(C(=O)Nc3ccc4c(c3)OCO4)cc2c1,inconclusive: -3.8%
7,Cc1ccc(-c2nnn(CCC(=O)N3CCCCC3C)n2)cc1 (stereo not drawn),inactive: -1.8%
8,CNC(=O)CSc1nnc(-c2ccccc2F)n1CCc1ccccc1,inactive: 3.9%
9,CCC(CC)NC(=O)C1CCN(c2ccc(S(=O)(=O)N3CCOCC3)cc2[N+](=O)[O-])CC1,inconclusive: -10.2%
10,Cc1ccc(NC(=O)C(=O)NCCCN2CCCC2=O)cc1,inconclusive: -7.2%
11,Cc1ccc(Cn2c(N3CCNCC3)nc3c2c(=O)[nH]c(=O)n3C)cc1,inconclusive: 13.7%
12,Cc1cccc(C)c1NC(=O)CN(C)C(=O)C(c1ccccc1)c1ccccc1,inactive: -1.9%
13,Cc1ccc(S(=O)(=O)N(C)C)cc1NC(=S)Nc1cccc2ccccc12,inactive: -2%
14,CCN1CCN(c2nc(Nc3cccc(F)c3)nc(N)c2[N+](=O)[O-])CC1,inconclusive: 24.1%
15,O=C(CCCc1cccs1)NCCc1c[nH]c2ccccc12,inactive: -13.9%
16,Cc1cc(=O)[nH]c(-c2ccccc2OC(F)(F)F)n1,inconclusive: 34.6%
17,N#Cc1ccc[n+](CC(=O)c2ccc(NC(=O)c3ccccc3)cc2)c1,inactive: 3.9%
18,COc1ccc(OCC(O)CNC2CCCC2)cc1 (stereo not drawn),inactive: -9.6%
19,CN1CCCC(OC(=O)c2cccc(Cl)c2)C1 (stereo not drawn),inconclusive: 26%
20,Cc1cc(=O)oc2cc(NS(=O)(=O)c3ccc(F)cc3)ccc12,inconclusive: -76.5%
21,COc1ccc(OC)c(NC(=O)c2ccccc2N(C)S(=O)(=O)c2ccc(C)cc2)c1,inconclusive: -3.5%
22,COc1ccc(S(=O)(=O)N2CCN(Cc3ccc(OC)c(OC)c3)CC2)cc1,inconclusive: -13.9%
23,COc1cccc(Oc2ccc(OC)cc2C(=O)O)c1,inconclusive: -4.7%
24,Cc1nc2sc3c(c2c(=O)o1)CC(C)(C)OC3,inconclusive: 25.4%

row,Compound,inhibition
1,COCCNC(=O)CN(C(=O)CCC(=O)Nc1ccccn1)c1ccc(C)cc1C,inconclusive: 15.9%
2,Nc1ccc2c(c1)C(=O)c1ccccc1-2,inconclusive: 1.8%
3,CCN1CCCCC(=N/O)/C(=N/O)CCCC1,active: 37.6%
4,O=C(c1csc2c1CCCC2)N1CCN(c2cccc(C(F)(F)F)c2)CC1,inactive: -1.8%
5,CCOc1cc(CNn2cnnc2)cc(Cl)c1OCC(=O)NC(C)(C)C,inconclusive: -16.8%
6,CNc1nc2c(c(=O)n(C)c(=O)n2C)n1CCCc1ccccc1,inconclusive: 0.7%
7,COc1ccc(OCCCN2CCc3ccccc3C2)cc1,inconclusive: -0.3%
8,Cc1ccc(N/N=C(\C#N)C(=N)N2CCCCC2)cc1,inconclusive: 2%
9,Cc1c(C(=O)Nc2ccccc2N2CCN(C)CC2)oc2ccc(F)cc12,inconclusive: -4.8%
10,CC(C)(C)OC(=O)NCCCCCNC(=O)c1[nH]cnc1C(=O)Nc1cc(Br)ccc1F,inactive: -7.6%
11,CC(C(=O)N1CCCCCC1)c1ccc([N+](=O)[O-])cc1 (stereo not drawn),inactive: -4.2%
12,CCOC(=O)c1ccccc1NC(=O)CN1C(=O)NC(C)(CCc2ccccc2)C1=O (stereo not drawn),inactive: 7.4%
13,CCn1c(-c2cc(-c3ccc(C)cc3)nc3ccccc23)n[nH]c1=S,inactive: 0.5%
14,CCCCCn1c(=O)c(C(=O)Nc2ncccc2C)c(O)c2ccccc21,active: 38.3%
15,OCc1nnn(-c2ccccc2)c1CO,inconclusive: -2.7%
16,CCN(CC)C(=O)N1CCN(S(=O)(=O)c2ccc(C)c(C)c2)CC1,inconclusive: 2.2%
17,Cc1ccc(CN2CC(C(=O)O)CC2=O)cc1 (stereo not drawn),inconclusive: 2.4%
18,CCOc1ccc(C(=O)Nc2cccc3nsnc23)cc1[N+](=O)[O-],inactive: -1.3%
19,O=C(Nc1cccnc1)C1CC(=O)N(c2ccc(F)cc2)C1 (stereo not drawn),inactive: -12.1%
20,Cc1ccc(N2CC(c3nc4ccccc4n3C)CC2=O)cc1 (stereo not drawn),inconclusive: -103%
21,NC(=O)c1ccc(NC(=O)Cc2cccs2)cc1,inconclusive: 13.9%
22,COc1ccccc1C(=O)NC(=O)COC(=O)Cn1cnc2c1c(=O)n(C)c(=O)n2C,inconclusive: -2.2%
23,COc1ccc(C2NC(=O)NC(C)=C2C(=O)OCC2CCCCC2)cc1OC (stereo not drawn),inactive: -19.3%
24,O=C(CN(C(=O)CNS(=O)(=O)c1ccc(F)cc1)c1ccccc1F)NCc1ccco1,active: 34.9%

# Compounds from the list above containing bromine:
row,Compound,inhibition
19,COc1cc(NC(=O)c2ccc(Br)cc2)c(OC)cc1NC(=O)c1ccccc1,inconclusive: -10%
10,CC(C)(C)OC(=O)NCCCCCNC(=O)c1[nH]cnc1C(=O)Nc1cc(Br)ccc1F,inactive: -7.6%

# Arranged by molar mass (rising): part of the list above.
row,Compound,inhibition
6,Cc1cc(C)c2[nH]c(C(=O)Nc3ccc4c(c3)OCO4)cc2c1,inconclusive: -3.8%
24,CC(C)n1c(C(F)(F)F)nc2cc(C(=O)N3CCOCC3)ccc21,inconclusive: 4.1%
16,CCN(CC)C(=O)N1CCN(S(=O)(=O)c2ccc(C)c(C)c2)CC1,inconclusive: 2.2%
13,Cc1ccc(S(=O)(=O)N(C)C)cc1NC(=S)Nc1cccc2ccccc12,inactive: -2%

# The listing continues:

row,Compound,inhibition
1,O=C(CCN1CCN(c2ccccc2)CC1)NNC(=O)c1ccccc1,inactive: -4.3%
2,C=CCN=C(NC#N)SCc1ccccc1,inactive: -3.9%
3,CC1=NN(C)C(=O)C1Cc1c(F)cccc1Cl (stereo not drawn),inconclusive: -55.4%
4,O=c1[nH]c(NCCO)nnc1Cc1ccc(Cl)cc1,inconclusive: 0.2%
5,CC(C)CC(=O)N1CCN(Cc2ccccc2Br)CC1,inconclusive: -5.6%
6,CCC(=O)N1CCc2nc(-c3ccccc3)sc2C1,inactive: 7.3%
7,COc1ccc(NC(=O)CN(c2ccc(F)cc2)S(=O)(=O)c2ccccc2)c(OC)c1,inconclusive: -38.2%
8,CCCCOC(=O)CCN1C(=O)/C(=C2\SC(=S)N(CCC(=O)OCCCC)C2=O)SC1=S,inactive: -0.8%
9,Cc1ccc(NC(=O)C(C)N2C(=O)c3ccccc3C2=O)cc1C (stereo not drawn),inconclusive: 14.4%
10,Cc1c(C(=O)Nc2ccccc2)cc(-c2ccccc2)n1CCCN1CCOCC1,inconclusive: -65.8%
11,COC(=O)[C@@H]1Cc2c([nH]c3ccccc23)C(C)(C)N1C(=O)CCl,inactive: 6.6%
12,Cc1ccccc1OCc1nnc(SCC(=O)O)n1-c1cccc(Cl)c1,inconclusive: -32.7%
13,Brc1ccc2c(c1)CN1CCCC1=N2,inconclusive: -3.5%
14,O=C(Nc1cccc(NC(=O)c2ccccc2[N+](=O)[O-])c1)c1ccccc1Cl,inconclusive: 0.2%
15,CC(C)CC(=O)NC(=S)Nc1ccc(CN2CCOCC2)cc1,inconclusive: 45.1%
16,CN(C)CCn1c2ccccc2c2nc3ccc([N+](=O)[O-])cc3cc21,inconclusive: -12.7%
17,CC(=O)CSc1nc2cc3c(cc2cc1C#N)OCCO3,inactive: -4.3%
18,O=c1[nH]c(/C=C/c2ccccc2OC(F)F)nc2c1cnn2-c1ccccc1,inactive: 5.2%
19,Cc1cc(S(=O)(=O)Nc2ccc(C(=O)NCc3cccnc3)cc2)ccc1F,inactive: -3.7%
20,CC(=O)Nc1ccc(N=Cc2c(O)ccc3ccccc23)cc1,inconclusive: 24.1%
21,Cc1cccc(C(=O)NCCC(=O)Nc2ccc(F)c([N+](=O)[O-])c2)c1,inactive: -12.6%
